Test results taken from the supplement of paper PMC10849652.
The other results are listed elsewhere or left out.

The chains behind the UniProt entries cited, without tags or fusion partners. Where a name states a change or a piece, a line headed by the entry shows the natural chain unless it says otherwise.
UniProt Q14773: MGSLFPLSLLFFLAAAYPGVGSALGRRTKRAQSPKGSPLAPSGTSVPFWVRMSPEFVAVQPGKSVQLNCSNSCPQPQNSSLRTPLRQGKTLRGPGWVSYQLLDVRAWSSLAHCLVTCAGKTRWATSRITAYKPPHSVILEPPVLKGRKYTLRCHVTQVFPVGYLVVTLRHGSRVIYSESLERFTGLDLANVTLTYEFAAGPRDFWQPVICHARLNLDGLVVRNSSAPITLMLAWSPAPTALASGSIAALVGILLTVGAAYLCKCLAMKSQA
UniProt Q92835: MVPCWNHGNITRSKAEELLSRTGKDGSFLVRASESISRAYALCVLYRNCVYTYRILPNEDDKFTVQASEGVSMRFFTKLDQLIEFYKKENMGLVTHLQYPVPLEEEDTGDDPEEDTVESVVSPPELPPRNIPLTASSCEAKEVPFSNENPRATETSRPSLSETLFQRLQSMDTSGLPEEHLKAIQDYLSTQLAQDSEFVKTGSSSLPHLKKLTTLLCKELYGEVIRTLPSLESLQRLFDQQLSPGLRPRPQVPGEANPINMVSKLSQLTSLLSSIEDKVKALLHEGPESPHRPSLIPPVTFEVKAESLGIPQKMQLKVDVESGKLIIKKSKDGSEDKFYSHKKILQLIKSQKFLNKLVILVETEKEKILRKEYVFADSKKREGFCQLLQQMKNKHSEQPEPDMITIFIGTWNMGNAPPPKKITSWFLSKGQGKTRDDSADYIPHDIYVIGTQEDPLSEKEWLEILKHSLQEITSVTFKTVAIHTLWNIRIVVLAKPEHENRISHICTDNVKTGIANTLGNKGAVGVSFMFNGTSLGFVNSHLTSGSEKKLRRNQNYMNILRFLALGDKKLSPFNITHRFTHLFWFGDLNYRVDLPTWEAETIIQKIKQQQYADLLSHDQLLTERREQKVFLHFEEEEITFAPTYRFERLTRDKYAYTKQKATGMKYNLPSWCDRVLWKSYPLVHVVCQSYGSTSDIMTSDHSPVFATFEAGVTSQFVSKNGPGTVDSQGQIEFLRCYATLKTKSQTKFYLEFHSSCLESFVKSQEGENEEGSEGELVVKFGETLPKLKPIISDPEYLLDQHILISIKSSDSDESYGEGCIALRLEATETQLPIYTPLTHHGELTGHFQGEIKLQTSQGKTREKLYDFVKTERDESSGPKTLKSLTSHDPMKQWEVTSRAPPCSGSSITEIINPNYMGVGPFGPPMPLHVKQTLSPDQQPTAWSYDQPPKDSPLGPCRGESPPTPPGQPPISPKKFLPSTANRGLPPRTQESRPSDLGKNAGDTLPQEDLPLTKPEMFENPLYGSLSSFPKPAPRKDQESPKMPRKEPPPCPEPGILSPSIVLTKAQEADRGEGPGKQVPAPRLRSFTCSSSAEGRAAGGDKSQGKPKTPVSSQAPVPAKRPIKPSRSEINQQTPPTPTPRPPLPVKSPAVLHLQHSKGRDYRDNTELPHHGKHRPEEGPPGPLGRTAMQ
UniProt O14879: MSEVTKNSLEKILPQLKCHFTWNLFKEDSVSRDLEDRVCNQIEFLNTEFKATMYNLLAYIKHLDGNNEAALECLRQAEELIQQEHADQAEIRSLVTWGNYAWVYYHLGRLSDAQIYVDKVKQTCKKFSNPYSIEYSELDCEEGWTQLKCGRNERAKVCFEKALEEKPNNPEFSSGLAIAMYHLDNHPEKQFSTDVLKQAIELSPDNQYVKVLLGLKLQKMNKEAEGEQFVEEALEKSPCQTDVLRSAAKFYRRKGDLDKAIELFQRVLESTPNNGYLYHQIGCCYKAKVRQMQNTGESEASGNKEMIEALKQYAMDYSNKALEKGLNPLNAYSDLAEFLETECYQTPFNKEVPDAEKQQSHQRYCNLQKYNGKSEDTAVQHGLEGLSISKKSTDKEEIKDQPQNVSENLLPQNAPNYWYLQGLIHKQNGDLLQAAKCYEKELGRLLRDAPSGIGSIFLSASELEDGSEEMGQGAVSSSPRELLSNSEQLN
UniProt Q9H7X7: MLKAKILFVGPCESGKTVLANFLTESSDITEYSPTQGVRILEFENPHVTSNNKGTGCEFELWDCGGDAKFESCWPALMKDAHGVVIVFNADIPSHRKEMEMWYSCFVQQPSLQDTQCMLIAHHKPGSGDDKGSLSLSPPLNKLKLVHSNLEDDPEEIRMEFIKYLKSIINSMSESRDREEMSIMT
UniProt Q9C086, whole entry, looked up: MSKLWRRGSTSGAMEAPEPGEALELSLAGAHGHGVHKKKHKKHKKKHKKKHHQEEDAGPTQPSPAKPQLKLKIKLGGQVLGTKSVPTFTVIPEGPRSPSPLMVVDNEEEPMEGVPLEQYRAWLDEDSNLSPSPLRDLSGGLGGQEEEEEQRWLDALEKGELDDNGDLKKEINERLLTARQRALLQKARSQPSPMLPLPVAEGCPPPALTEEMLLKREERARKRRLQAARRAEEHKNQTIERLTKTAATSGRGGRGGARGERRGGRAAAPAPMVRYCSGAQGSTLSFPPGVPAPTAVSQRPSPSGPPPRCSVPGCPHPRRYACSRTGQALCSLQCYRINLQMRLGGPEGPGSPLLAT
UniProt Q9NRY2: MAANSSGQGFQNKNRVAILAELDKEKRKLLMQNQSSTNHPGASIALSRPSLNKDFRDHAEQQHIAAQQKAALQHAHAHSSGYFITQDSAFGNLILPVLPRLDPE
UniProt Q16666: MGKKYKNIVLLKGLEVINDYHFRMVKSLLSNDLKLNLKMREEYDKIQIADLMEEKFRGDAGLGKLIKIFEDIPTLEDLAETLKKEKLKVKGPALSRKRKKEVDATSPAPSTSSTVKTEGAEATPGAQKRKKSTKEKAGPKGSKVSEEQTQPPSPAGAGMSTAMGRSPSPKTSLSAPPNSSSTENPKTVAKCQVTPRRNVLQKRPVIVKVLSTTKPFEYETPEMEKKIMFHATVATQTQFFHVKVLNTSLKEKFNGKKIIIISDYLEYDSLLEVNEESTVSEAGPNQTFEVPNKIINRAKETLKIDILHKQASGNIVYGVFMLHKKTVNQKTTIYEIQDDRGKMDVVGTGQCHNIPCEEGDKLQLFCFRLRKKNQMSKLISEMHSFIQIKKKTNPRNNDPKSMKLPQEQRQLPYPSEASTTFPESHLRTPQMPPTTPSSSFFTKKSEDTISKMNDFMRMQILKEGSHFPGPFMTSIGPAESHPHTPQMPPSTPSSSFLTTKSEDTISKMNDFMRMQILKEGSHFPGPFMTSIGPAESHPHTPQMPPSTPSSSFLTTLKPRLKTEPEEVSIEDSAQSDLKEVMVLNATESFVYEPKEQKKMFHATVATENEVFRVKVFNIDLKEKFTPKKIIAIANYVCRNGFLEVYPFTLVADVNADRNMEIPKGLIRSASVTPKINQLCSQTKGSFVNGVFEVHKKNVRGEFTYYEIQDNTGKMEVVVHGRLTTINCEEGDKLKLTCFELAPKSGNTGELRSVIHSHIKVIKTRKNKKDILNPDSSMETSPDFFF
UniProt Q9UK53: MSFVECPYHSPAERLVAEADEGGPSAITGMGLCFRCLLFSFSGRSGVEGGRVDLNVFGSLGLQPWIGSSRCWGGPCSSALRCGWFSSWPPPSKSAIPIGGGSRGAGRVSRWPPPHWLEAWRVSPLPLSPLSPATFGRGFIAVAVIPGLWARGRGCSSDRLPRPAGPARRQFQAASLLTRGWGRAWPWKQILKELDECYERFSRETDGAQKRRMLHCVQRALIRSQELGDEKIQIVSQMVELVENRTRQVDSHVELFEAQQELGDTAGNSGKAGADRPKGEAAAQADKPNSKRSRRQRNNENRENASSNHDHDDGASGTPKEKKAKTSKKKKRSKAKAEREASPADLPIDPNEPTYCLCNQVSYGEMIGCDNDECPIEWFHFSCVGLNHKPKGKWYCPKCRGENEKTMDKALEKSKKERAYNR
UniProt Q14642: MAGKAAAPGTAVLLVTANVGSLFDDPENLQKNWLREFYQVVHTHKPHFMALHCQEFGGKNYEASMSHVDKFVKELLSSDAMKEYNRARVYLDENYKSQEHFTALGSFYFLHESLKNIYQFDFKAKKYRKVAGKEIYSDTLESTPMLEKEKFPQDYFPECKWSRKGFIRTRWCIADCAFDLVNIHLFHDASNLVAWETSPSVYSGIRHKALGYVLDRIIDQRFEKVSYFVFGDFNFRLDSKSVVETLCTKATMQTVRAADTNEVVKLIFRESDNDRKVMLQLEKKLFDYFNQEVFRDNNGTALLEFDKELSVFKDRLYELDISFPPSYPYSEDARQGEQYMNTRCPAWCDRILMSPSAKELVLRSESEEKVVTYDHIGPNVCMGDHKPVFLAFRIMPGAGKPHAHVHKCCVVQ
UniProt P22304: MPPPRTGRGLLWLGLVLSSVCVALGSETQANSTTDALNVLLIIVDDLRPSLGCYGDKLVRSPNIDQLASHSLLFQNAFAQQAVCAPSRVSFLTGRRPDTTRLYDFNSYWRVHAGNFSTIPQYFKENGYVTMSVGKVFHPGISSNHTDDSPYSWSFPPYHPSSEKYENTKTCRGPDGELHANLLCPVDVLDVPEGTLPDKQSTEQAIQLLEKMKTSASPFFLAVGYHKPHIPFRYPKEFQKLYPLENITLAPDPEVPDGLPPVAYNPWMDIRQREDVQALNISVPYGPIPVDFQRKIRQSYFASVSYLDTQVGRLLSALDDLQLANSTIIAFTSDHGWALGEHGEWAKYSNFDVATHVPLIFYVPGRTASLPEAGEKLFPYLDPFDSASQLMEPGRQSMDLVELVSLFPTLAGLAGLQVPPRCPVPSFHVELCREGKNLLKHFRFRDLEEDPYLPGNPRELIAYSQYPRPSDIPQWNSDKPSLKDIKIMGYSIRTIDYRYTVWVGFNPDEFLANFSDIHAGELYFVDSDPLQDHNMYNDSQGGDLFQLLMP
UniProt Q96D96: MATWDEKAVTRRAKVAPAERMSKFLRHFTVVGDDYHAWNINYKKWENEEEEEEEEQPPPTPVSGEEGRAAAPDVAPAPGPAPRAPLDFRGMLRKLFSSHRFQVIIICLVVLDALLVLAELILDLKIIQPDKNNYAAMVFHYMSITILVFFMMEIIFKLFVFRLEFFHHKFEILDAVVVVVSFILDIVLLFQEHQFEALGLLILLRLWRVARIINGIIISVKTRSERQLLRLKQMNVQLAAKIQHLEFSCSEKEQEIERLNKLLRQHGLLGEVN
UniProt Q96FT9: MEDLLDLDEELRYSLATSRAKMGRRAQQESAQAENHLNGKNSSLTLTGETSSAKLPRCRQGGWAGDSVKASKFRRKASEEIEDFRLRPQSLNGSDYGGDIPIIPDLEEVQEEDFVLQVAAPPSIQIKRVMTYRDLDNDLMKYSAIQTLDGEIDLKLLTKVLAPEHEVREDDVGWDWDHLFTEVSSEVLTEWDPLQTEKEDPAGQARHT

The targets below were run with NC1(c2ccc(-c3nc4ccn5c(=O)[nH]nc5c4cc3-c3ccccc3)cc2)CCC1 (assay: log2 fold change, soluble protein after heating vs DMSO (PISA); higher = thermal stabilisation; K562 lysate, 10 uM; active = over 0.2 and 3.5 SD of the protein, either way, in both replicates (recomputed)).
Outline: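 Soluble protein was defined as the supernatant remaining after 21,000xg for 90 min, following pooling of heated aliquots and adjustment to 0.5% NP-40 at 4°C. Before that, crude K562 extract at 1 mg/mL protein in PBS pH 7.4 with 1 mM MgCl2 was treated with 10 μM compound for 30 min and heated for 3 min across 48°C-58°C. Quantification used TMTpro 16plex LC-MS/MS with channel sums equalised, and values are log-two fold changes in thermal stability relative to solvent controls from duplicates.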

log2 fold change, inactive:
ICAM4 isoform 3 (UniProt Q14773) -0.048
IGLL5 (UniProt B9A064) 0.775
INPP5D (UniProt Q92835) 0.342
IFIT3 (UniProt O14879) -0.154
IFT22 (UniProt Q9H7X7) 0
IGHV3-72, A0A4W8ZXM2 0.567
INO80B (UniProt Q9C086) -0.029
INIP (UniProt Q9NRY2) 0.06
IFI16 (UniProt Q16666) -0.054
ING1 (UniProt Q9UK53) 0.006
INPP5A (UniProt Q14642) -0.037
IDS (UniProt P22304) 0.025
HVCN1 (UniProt Q96D96) -0.264
IFT43 (UniProt Q96FT9) -0.303
HYOU1, A0A494C039 0.03

Two neighbouring entries already listed, for reference:
log2 fold change, inactive:
ICAM4 isoform 3 (UniProt Q14773) -0.048
IGLL5 (UniProt B9A064) 0.775
